PubChem BioAssay AID1224830 – NIAID – 2016
Test: 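Regulators of TLR4 signalling towards TNF-alpha in macrophage-like cells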 (primary screen). System: human THP-1 monocytic leukaemia cells, TNF dual-luciferase reporter clone, PMA-differentiated to macrophage-like cells. Knock-down reagent: siRNA pool against human genes, 50 nM. Time to read-out: LPS for 4 h, given about 3 days after siRNA transfection. Conditions: bacterial LPS (TLR4 ligand), 10 ng/ml. Measured: 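Ratio of firefly to renilla light, scaled to the plate median and expressed as a robust z-score per replicate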. Scale: TNF reporter robust z-score: higher = stronger TNF reporter response to LPS. Hit rule: 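Each well counts as active if its z-score is over 2.8 or under -1.5; controls are left without a call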.
The deposit covers about 18,000 reagents; shown is a random part of them. About 2,900 of them (16%) were called active. 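Calls are made per well; low scores hint the gene aids the LPS response, high scores that it dampens it.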 Entries without a mark were called inactive. Repeated entries: four replicate wells of each siRNA pool.

Knock-down of DIAPH3 (diaphanous related formin 3) [SID315459925] came out at: TNF reporter robust z-score -0.16.
Depletion of DIAPH3 (diaphanous related formin 3) [SID315459925] came out at: TNF reporter robust z-score -1.36.
Silencing of DIAPH3 (diaphanous related formin 3) [SID315459925] resulted in: TNF reporter robust z-score 0.63.
With knock-down of DIAPH3 (diaphanous related formin 3) [SID315459925] the results were TNF reporter robust z-score 0.43.
Against H2AC15 (H2A clustered histone 15) [SID315452483], the values are TNF reporter robust z-score 0.43.
After knock-down of H2AC15 (H2A clustered histone 15) [SID315452483], the record shows TNF reporter robust z-score 1.09.
H2AC15 (H2A clustered histone 15) [SID315452483] scored TNF reporter robust z-score 1.11.
H2AC15 (H2A clustered histone 15) [SID315452483] gave TNF reporter robust z-score 0.91.
With knock-down of MT1A (metallothionein 1A) [SID315450052], the screen gave TNF reporter robust z-score -1.89 (active).
MT1A (metallothionein 1A) [SID315450052] gave TNF reporter robust z-score -0.94.
With knock-down of MT1A (metallothionein 1A) [SID315450052], the record shows TNF reporter robust z-score -0.82.
With knock-down of MT1A (metallothionein 1A) [SID315450052], the record shows TNF reporter robust z-score -0.87.
QTGAL (queuosine-tRNA galactosyltransferase) [SID315462289] scored TNF reporter robust z-score -0.03.
Silencing of QTGAL (queuosine-tRNA galactosyltransferase) [SID315462289] resulted in: TNF reporter robust z-score 0.08.
QTGAL (queuosine-tRNA galactosyltransferase) [SID315462289] gave TNF reporter robust z-score 0.89.
Depletion of QTGAL (queuosine-tRNA galactosyltransferase) [SID315462289] came out at: TNF reporter robust z-score 0.46.
TAB3 (TGF-beta activated kinase 1 (MAP3K7) binding protein 3) [SID315463562] gave TNF reporter robust z-score -1.6 (active).
Depletion of TAB3 (TGF-beta activated kinase 1 (MAP3K7) binding protein 3) [SID315463562] gave: TNF reporter robust z-score -1.3.
Against TAB3 (TGF-beta activated kinase 1 (MAP3K7) binding protein 3) [SID315463562] the deposit lists TNF reporter robust z-score -1.32.
TAB3 (TGF-beta activated kinase 1 (MAP3K7) binding protein 3) [SID315463562] scored TNF reporter robust z-score -0.92.

Sorted by “TNF reporter robust z-score” (ascending): 4 of the entries above
TAB3 (TGF-beta activated kinase 1 (MAP3K7) binding protein 3) [SID315463562] — TNF reporter robust z-score: -1.6 (active)
TAB3 (TGF-beta activated kinase 1 (MAP3K7) binding protein 3) [SID315463562] — TNF reporter robust z-score: -1.32
TAB3 (TGF-beta activated kinase 1 (MAP3K7) binding protein 3) [SID315463562] — TNF reporter robust z-score: -1.3
QTGAL (queuosine-tRNA galactosyltransferase) [SID315462289] — TNF reporter robust z-score: 0.46

Continued.
With knock-down of INPP4A (inositol polyphosphate-4-phosphatase type I A) [SID315449513] the results were TNF reporter robust z-score -0.57.
After knock-down of INPP4A (inositol polyphosphate-4-phosphatase type I A) [SID315449513] the results were TNF reporter robust z-score 0.05.
INPP4A (inositol polyphosphate-4-phosphatase type I A) [SID315449513] showed TNF reporter robust z-score -0.22.
Silencing of INPP4A (inositol polyphosphate-4-phosphatase type I A) [SID315449513] resulted in: TNF reporter robust z-score -0.53.
CCDC18 (coiled-coil domain containing 18) [SID315464150] showed TNF reporter robust z-score 1.14.
CCDC18 (coiled-coil domain containing 18) [SID315464150] gave TNF reporter robust z-score 1.15.
With knock-down of CCDC18 (coiled-coil domain containing 18) [SID315464150], the record shows TNF reporter robust z-score 1.29.
After knock-down of CCDC18 (coiled-coil domain containing 18) [SID315464150], the record shows TNF reporter robust z-score 1.77.
With knock-down of CD300A (CD300a molecule) [SID315454749], the screen gave TNF reporter robust z-score -0.49.
For CD300A (CD300a molecule) [SID315454749], the entry reads TNF reporter robust z-score -0.85.
For CD300A (CD300a molecule) [SID315454749], the entry reads TNF reporter robust z-score -0.53.
With knock-down of CD300A (CD300a molecule) [SID315454749], the screen gave TNF reporter robust z-score 0.13.
LDOC1 (LDOC1 regulator of NFKB signaling) [SID315455387] gave TNF reporter robust z-score 2.15.
With knock-down of LDOC1 (LDOC1 regulator of NFKB signaling) [SID315455387] the results were TNF reporter robust z-score 0.71.
LDOC1 (LDOC1 regulator of NFKB signaling) [SID315455387] showed TNF reporter robust z-score 1.55.
Knock-down of LDOC1 (LDOC1 regulator of NFKB signaling) [SID315455387] came out at: TNF reporter robust z-score -0.99.
For DBP (D-box binding PAR bZIP transcription factor) [SID315448254] the deposit lists TNF reporter robust z-score -0.35.
Depletion of DBP (D-box binding PAR bZIP transcription factor) [SID315448254] gave: TNF reporter robust z-score -0.14.
For DBP (D-box binding PAR bZIP transcription factor) [SID315448254], the entry reads TNF reporter robust z-score -0.28.
Knock-down of DBP (D-box binding PAR bZIP transcription factor) [SID315448254] resulted in: TNF reporter robust z-score 0.18.
For ERO1B (endoplasmic reticulum oxidoreductase 1 beta) [SID315458088], the entry reads TNF reporter robust z-score 0.
Depletion of ERO1B (endoplasmic reticulum oxidoreductase 1 beta) [SID315458088] resulted in: TNF reporter robust z-score 2.23.
After knock-down of ERO1B (endoplasmic reticulum oxidoreductase 1 beta) [SID315458088] the results were TNF reporter robust z-score -0.69.
Silencing of ERO1B (endoplasmic reticulum oxidoreductase 1 beta) [SID315458088] came out at: TNF reporter robust z-score -0.73.
Silencing of C1orf50 (chromosome 1 open reading frame 50) [SID315459197] came out at: TNF reporter robust z-score -1.58 (active).
Depletion of C1orf50 (chromosome 1 open reading frame 50) [SID315459197] came out at: TNF reporter robust z-score -1.62 (active).
Silencing of C1orf50 (chromosome 1 open reading frame 50) [SID315459197] resulted in: TNF reporter robust z-score -1.53 (active).
Against C1orf50 (chromosome 1 open reading frame 50) [SID315459197] the deposit lists TNF reporter robust z-score -0.84.
